Data reported in article PMC10651854.
No constants are given. Whether binding was seen depends on the method and setting. Binding seen in cells or lysates may run through a third protein. Binding calls can cover weak binding; strength is not graded here. Blank lines part the entries; values can stand above or below the molecule they belong to.

Key:
[1] = target: T1, Nuclear receptor subfamily 2 group F member 1 (NR2F1) (human (endogenous in GBM cells)) (UniProt P10589); assay: co-IP; Pierce Co-IP Kit; primary antibody (anti-463aa or anti-NR2F1) immobilised on AminoLink Plus Coupling Resin; GBM cell lysates overnight at 4 °C; eluates analysed by western blot
T1 sequence: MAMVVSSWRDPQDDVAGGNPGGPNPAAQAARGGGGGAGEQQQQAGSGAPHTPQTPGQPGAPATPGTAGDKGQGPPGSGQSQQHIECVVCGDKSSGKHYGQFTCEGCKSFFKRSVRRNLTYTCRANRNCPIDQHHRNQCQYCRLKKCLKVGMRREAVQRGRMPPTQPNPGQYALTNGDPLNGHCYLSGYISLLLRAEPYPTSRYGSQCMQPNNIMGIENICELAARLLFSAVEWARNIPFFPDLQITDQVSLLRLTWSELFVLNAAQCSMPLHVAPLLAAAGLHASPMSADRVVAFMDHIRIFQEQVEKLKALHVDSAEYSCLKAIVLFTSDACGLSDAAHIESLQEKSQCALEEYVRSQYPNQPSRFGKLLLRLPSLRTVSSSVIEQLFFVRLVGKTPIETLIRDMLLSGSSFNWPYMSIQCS

[2] = target: circHECTD1-encoded functional peptide 463aa (human (endogenous in GBM cells)); assay: as above

- binding [1]: binds
Molecule: circHECTD1-encoded functional peptide 463aa (human (endogenous in GBM cells))

- binding [2]: binds
B1: Nuclear receptor subfamily 2 group F member 1 (NR2F1) (protein, UniProt P10589 1-423)
chain: T1 sequence
